{
  "sequences": {"note": "Protein sequences, listed by entry. Tags and fused reporters are not part of them. Lines headed by an entry give the natural chain unless they say otherwise; changes in a name come on top.", "UniProt P11473": "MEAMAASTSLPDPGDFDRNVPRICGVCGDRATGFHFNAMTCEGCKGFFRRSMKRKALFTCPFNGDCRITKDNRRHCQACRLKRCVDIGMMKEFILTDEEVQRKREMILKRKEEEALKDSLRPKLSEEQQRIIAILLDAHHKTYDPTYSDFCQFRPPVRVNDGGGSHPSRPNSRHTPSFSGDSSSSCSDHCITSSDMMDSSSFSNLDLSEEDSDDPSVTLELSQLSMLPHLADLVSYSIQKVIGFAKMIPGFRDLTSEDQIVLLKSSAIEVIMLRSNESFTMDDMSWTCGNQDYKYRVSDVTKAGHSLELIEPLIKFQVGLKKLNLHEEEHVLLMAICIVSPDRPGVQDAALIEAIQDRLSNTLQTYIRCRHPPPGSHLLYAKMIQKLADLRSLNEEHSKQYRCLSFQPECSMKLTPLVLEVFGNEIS"},
  "source": "PubChem BioAssay AID504847",
  "about": "(National Center for Advancing Translational Sciences (NCATS), 2011)",
  "note": "The whole screen tested about 400,000 compounds, of which about 3,700 (0.93%) were called active. Inconclusive means that the source gave no clear call. Such entries were picked first, then a sample of the others. Calls follow the shape of the dose curve; as a rule, active = well fitted inhibition curve with a large enough effect; inconclusive = small, poorly fitted or top-dose-only effect, or another doubt; inactive = no such curve, though single readings can be large or run the other way. A potency beside an inconclusive call is a rough fit, not a confirmed value. Where a SMILES comes first, the peptide text is derived from it. The star is where a group is joined. Cbz = O=C(OCc1ccccc1)*",
  "data": [
    {"target": "Vitamin D3 receptor (Homo sapiens) (UniProt P11473)", "assay": "Inhibitors of the vitamin D receptor (VDR): qHTS; also: potency is read from the fitted curve at half-maximal effect; as to max response, negative = inhibition: % is scaled to controls: 0 for no effect and ±100 for the full control effect", "details": "VDR-SRC2-3 peptide fluorescence polarization, 2 h; max response, negative = inhibition: stronger effect = lower value", "how_it_was_run": "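Inhibition of the VDR/SRC2-3 peptide interaction is quantified by fluorescence polarization. Compounds (23 nl, pintool) incubate with the reagents for 2 hours at ambient room temperature.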", "values": [
      {"compound": "CCC(=O)N1CCc2cc(S(=O)(=O)CCC(=O)NCc3ccccc3Cl)ccc21", "max response, negative = inhibition": "inactive: -23%"},
      {"compound": "COc1cc(/C=C(\\C#N)c2nc3ccccc3n2C)cc(OC)c1O", "max response, negative = inhibition": "inactive: -20.9%"},
      {"compound": "CCC(=O)Nc1nc(=S)ss1", "Potency": "active: 44.7 µM"},
      {"compound": "Cc1c(C(=O)N(C)CCC#N)oc2ccc(S(=O)(=O)N3CC(C)CC(C)C3)cc12", "note": "(centres undefined)", "Potency": "inconclusive: 28.2 µM [inhibitor, single point]"},
      {"compound": "COc1cc(OC)cc(-c2cc3cc4c(cc3cn2)OCO4)c1", "max response, negative = inhibition": "inactive: 7.62%"},
      {"compound": "COc1c(O)ccc(/C=N\\NC(=O)c2ccc3c(c2)OCO3)c1[N+](=O)[O-]", "Potency": "inconclusive: 0.708 µM [inhibitor, full curve, poor fit]"},
      {"compound": "Cc1oc2ccc(O)c(CN3CCOCC3)c2c1C(=O)Nc1ccc(C(C)C)cc1", "max response, negative = inhibition": "inactive: 10.9%"},
      {"compound": "Cc1ccc(C(=O)N2CCCC(N3CCN(c4ccccc4C)CC3)C2)c(=O)[nH]1", "note": "(centres undefined)", "Potency": "inconclusive: 89.1 µM [inhibitor, single point]"},
      {"compound": "Cc1ccccc1-n1sc2cc(F)ccc2c1=O", "Potency": "inconclusive: 6.31 µM [inhibitor, full curve, poor fit]"},
      {"compound": "CC(=O)c1cc(-c2ccc(F)cc2)n(CC(=O)NC2CCCCCC2)c1C", "max response, negative = inhibition": "inactive: 21%"},
      {"compound": "OC(CN1CCCC(C(F)(F)F)C1)c1ccccc1", "note": "(centres undefined)", "Potency": "inconclusive: 89.1 µM [inhibitor, partial curve, poor fit]"},
      {"compound": "COc1ccc(/C=N/N2CCOCC2)cc1OCc1ccccc1", "max response, negative = inhibition": "inactive: 10.8%"},
      {"compound": "O=C(/C=C/c1c(F)cccc1Cl)c1ccc(O)cc1", "Potency": "active: 79.4 µM"},
      {"compound": "CN1C(=O)/C(=C/c2cccc([N+](=O)[O-])c2)C(=O)N1c1ccccc1", "Potency": "active: 31.6 µM"},
      {"compound": "COc1ccc2c(c1)O[C@@H](c1ccc3c(c1)OCO3)[C@H](OC(=O)NCc1ccco1)C2=O", "Potency": "inconclusive: 79.4 µM [inhibitor, partial curve, poor fit]"},
      {"compound": "Cn1c(=O)c(=O)n(C)c2cc(S(=O)(=O)NCc3ccc(Cl)cc3)ccc21", "Potency": "inconclusive: 39.8 µM [inhibitor, partial curve, poor fit]"},
      {"compound": "CCOC(=O)c1c(NC(=O)COc2cccc(C)c2C)sc2c1CCCCC2", "Potency": "inconclusive: 70.8 µM [inhibitor, single point]"},
      {"compound": "COCCNC(=S)NNc1ccccc1[N+](=O)[O-]", "Potency": "inconclusive: 100 µM [inhibitor, single point]"},
      {"compound": "CCOc1ccc(N2C(=O)CC(Sc3nc(C)cc(C)n3)C2=O)cc1", "note": "(centres undefined)", "max response, negative = inhibition": "inactive: -8.57%"},
      {"compound": "CN(Cc1ccco1)c1cc(-c2ccccc2Cl)ncn1", "Potency": "active: 44.7 µM"},
      {"compound": "O=C(COC(=O)COc1ccccc1)Nc1ncc([N+](=O)[O-])s1", "Potency": "inconclusive: 89.1 µM [inhibitor, single point]"},
      {"compound": "O=C(/C=C/c1ccccc1)c1ccc(O)cc1", "Potency": "active: 44.7 µM"},
      {"compound": "CCCC(=O)Nc1cccc(Oc2nc(C)cc(C)c2C#N)c1", "Potency": "inconclusive: 89.1 µM [inhibitor, single point]"},
      {"compound": "COc1ccc(CNC(=O)C(C)OC(=O)CO/N=C(\\C)c2ccc3c(c2)OCO3)cc1", "note": "(centres undefined)", "Potency": "inconclusive: 89.1 µM [inhibitor, single point]"},
      {"compound": "O=C(Nc1ccc(F)cc1)C1CC(=O)n2ncnc2N1", "note": "(centres undefined)", "max response, negative = inhibition": "inactive: -15.6%"},
      {"compound": "CCOC(=O)c1c(NC(=O)C2CCCN(S(=O)(=O)c3ccccc3)C2)sc2c1CCCC2", "note": "(centres undefined)", "max response, negative = inhibition": "inactive: -4.52%"},
      {"compound": "CCc1ccc(CNC(=O)Cn2nc(C)c3c(C)n(-c4ccc(C)cc4)nc3c2=O)cc1", "max response, negative = inhibition": "inactive: -3.24%"},
      {"compound": "O=C(/C=C/c1ccc([N+](=O)[O-])cc1)c1cccs1", "Potency": "inconclusive: 17.8 µM [inhibitor, partial curve, poor fit]"},
      {"compound": "Cc1cccc(/C=C\\c2ccccc2)n1", "max response, negative = inhibition": "inactive: 0.0369%"},
      {"compound": "Cc1nc(SCC(=O)N2CCCc3ccccc32)c2oc3ccccc3c2n1", "max response, negative = inhibition": "inactive: -2.41%"},
      {"compound": "CC(C)(C)OC(=O)NCCCCCC(=O)N/N=C/c1coc2ccccc2c1=O", "Potency": "inconclusive: 50.1 µM [inhibitor, partial curve, poor fit]"},
      {"compound": "Cc1ccc(C2=NN=C(NC(=O)CSc3nnc4c5ccccc5n(C)c4n3)SC2)cc1", "Potency": "inconclusive: 35.5 µM [inhibitor, full curve, poor fit]"},
      {"compound": "Cc1cc(O)c(C(C)C)cc1N=Cc1ccccc1[N+](=O)[O-]", "Potency": "active: 31.6 µM"},
      {"compound": "CCNC(=S)Nc1ccc(N2CCCCC2)cc1", "Potency": "inconclusive: 89.1 µM [inhibitor, single point]"},
      {"compound": "Cc1ccc(N(CC(=O)NCc2ccc(F)cc2)S(=O)(=O)c2c(C)n[nH]c2C)cc1", "Potency": "inconclusive: 100 µM [inhibitor, partial curve, poor fit]"},
      {"compound": "O=C(NCCCNC(=O)c1cccs1)c1cccs1", "Potency": "inconclusive: 7.08 µM [inhibitor, single point]"},
      {"compound": "Cc1cccc(OCC(=O)Nc2c(C(=O)N3CCN(c4ccccc4)CC3)oc3ccccc23)c1", "max response, negative = inhibition": "inactive: 18%"},
      {"compound": "COc1cccc(C(=O)C(C#N)=C(SC)SC)c1", "Potency": "active: 39.8 µM"},
      {"compound": "CNc1nc(NC#N)nc(SC)n1", "Potency": "inconclusive: 35.5 µM [inhibitor, partial curve, poor fit]"},
      {"compound": "Cc1ccc(OCc2ccc(-c3nc(C#N)c(N4CCN(c5cccc(Cl)c5)CC4)o3)o2)cc1", "max response, negative = inhibition": "inactive: 5.54%"},
      {"compound": "O=c1[nH]n(-c2ccccn2)c(=O)c2ccccc12", "Potency": "inconclusive: 39.8 µM [inhibitor, single point]"},
      {"compound": "O=C1C=CC2=C3c4cc(O)c(O)cc4CC3(O)COC2=C1O", "note": "(centres undefined)", "Potency": "inconclusive: 89.1 µM [inhibitor, single point]"},
      {"compound": "Cc1ccc(-c2nc(=N)sn2Cc2ccccc2)cc1", "Potency": "active: 17.8 µM"},
      {"compound": "Cc1ccccc1Nc1cc(C(=O)NCC2CCCO2)c2ccccc2n1", "note": "(centres undefined)", "Potency": "inconclusive: 31.6 µM [inhibitor, partial curve, poor fit]"},
      {"compound": "O=C(COc1ccccc1F)OCC(=O)c1ccc([N+](=O)[O-])cc1", "Potency": "inconclusive: 89.1 µM [inhibitor, single point]"},
      {"compound": "COc1ccc(S(=O)(=O)Cc2ccc(C(=O)NC(C)C)o2)cc1", "Potency": "inconclusive: 89.1 µM [inhibitor, single point]"},
      {"compound": "O=C(Oc1ccc(N(Cc2cccs2)C2=NS(=O)(=O)c3ccccc32)cc1)c1ccccc1Cl", "Potency": "inconclusive: 7.08 µM [inhibitor, single point]"},
      {"compound": "CO/N=C\\CC(=O)Nc1ccc(Cl)cc1Cl", "Potency": "inconclusive: 20 µM [inhibitor, full curve]"},
      {"compound": "COc1ccc(NC(=O)/C(Cl)=C(/Cl)S(=O)Cc2ccccc2Cl)cn1", "note": "(centres undefined)", "Potency": "inconclusive: 11.2 µM [inhibitor, partial curve, poor fit]"},
      {"compound": "CC(C)[C@H](NC(=O)OCc1ccccc1)C(=O)N[C@H](C=O)Cc1ccccc1", "note": "(Cbz-Val-Phe-aldehyde)", "Potency": "inconclusive: 70.8 µM [inhibitor, single point]"},
      {"compound": "O=C(CN1C(=O)COc2ccc(Cl)cc21)Nc1ccccn1", "Potency": "inconclusive: 89.1 µM [inhibitor, single point]"},
      {"compound": "Cc1ccc(-n2c(N)c(C(=O)N3CCCCC3)sc2=S)cc1", "Potency": "inconclusive: 89.1 µM [inhibitor, single point]"},
      {"compound": "CC1CC2(CCCCC2)N2C(=O)C(=O)c3cccc1c32", "note": "(centres undefined)", "Potency": "inconclusive: 31.6 µM [inhibitor, partial curve, poor fit]"},
      {"compound": "COCC(=O)N1CCC2(CCCN(Cc3cc(C(F)(F)F)cc(C(F)(F)F)c3)C2)CC1", "Potency": "inconclusive: 79.4 µM [inhibitor, partial curve]"},
      {"compound": "FC(F)(F)c1cc(CN2CC[C@@]3(CCCNC3)C2)cc(C(F)(F)F)c1", "Potency": "inconclusive: 89.1 µM [inhibitor, single point]"},
      {"compound": "CCCN(CC1CC1)S(=O)(=O)c1ccc(-n2cnnn2)c(OC)c1", "max response, negative = inhibition": "inactive: -9.24%"},
      {"compound": "CC(Sc1ccc2c(c1)OCCO2)C(=O)Nc1ccc(N2CCOCC2)cc1", "note": "(centres undefined)", "Potency": "inconclusive: 100 µM [inhibitor, single point]"},
      {"compound": "Nc1ccc(N(CCO)CCO)cc1", "Potency": "inconclusive: 8.91 µM [inhibitor, full curve, poor fit]"},
      {"compound": "O=C(CN1CCN(c2ccccc2O)CC1)Nc1cc([N+](=O)[O-])ccc1Cl", "max response, negative = inhibition": "inactive: 5.14%"},
      {"compound": "CCC(=O)Nc1ccc(C=C(C(C)=O)C(C)=O)cc1", "Potency": "active: 79.4 µM"},
      {"compound": "Cc1cc(Br)ccc1OCCOCCN1CCCC1", "Potency": "inconclusive: 17.8 µM [inhibitor, partial curve, poor fit]"},
      {"compound": "COc1cccc(C(=O)COc2cccc(NC(=O)c3cccc([N+](=O)[O-])c3)c2)c1", "max response, negative = inhibition": "inactive: 6.83%"},
      {"compound": "CN1CC=C2C(C#N)=C(N)C(C#N)(C#N)[C@H](c3cccs3)[C@H]2C1", "Potency": "inconclusive: 100 µM [inhibitor, single point]"},
      {"compound": "O=c1c(-c2ccc(F)cc2)nc2cnc(N3CCOCC3)nc2n1C1CC1", "Potency": "inconclusive: 39.8 µM [inhibitor, single point]"},
      {"compound": "CCN(CC)c1ccc(N=C2C=CC(=O)C=C2NC(C)=O)cc1", "Potency": "active: 70.8 µM"},
      {"compound": "CCC(C)c1ccc(NC(=S)NCCn2cc(Br)cn2)cc1", "note": "(centres undefined)", "Potency": "inconclusive: 56.2 µM [inhibitor, partial curve, poor fit]"},
      {"compound": "CCCCC(=O)NC(=S)NNC(=O)CCc1ccccc1", "Potency": "inconclusive: 31.6 µM [inhibitor, partial curve, poor fit]"},
      {"compound": "COCCn1c(=S)[nH]c2cc(C(=O)N3CCc4ccccc4C3)ccc2c1=O", "Potency": "inconclusive: 79.4 µM [inhibitor, single point]"},
      {"compound": "NC(=O)[C@H]1CC2(CC(c3cccc(NC(=O)COc4ccc(Cl)cc4)c3)=NO2)CN1C(=O)c1ccc(Cl)cc1", "note": "(some centres undefined)", "Potency": "inconclusive: 2.51 µM [inhibitor, partial curve, poor fit]"}
    ]}
  ]
}
